Results taken from PubChem BioAssay AID504834 (National Center for Advancing Translational Sciences (NCATS), 2011).
About 22,000 (6.9%) of roughly 320,000 compounds were called active. Inconclusive results, whose numbers are uncertain, are shown with a selection of clear calls. The call rests on the fitted dose curve; in most records, active means well fitted inhibition curve with a large enough effect; inconclusive means small, poorly fitted or top-dose-only effect, or another doubt; inactive means no such curve, though single readings can be large or run the other way. Potencies beside an inconclusive call are fits to weak or partial responses and may not hold up.

experiment: Primary qHTS for delayed death inhibitors of the malarial parasite plastid, 96 hour incubation; details: P. falciparum luciferase reporter growth; series mostly up to 28.7 µM
How it was run: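 Readout is luminescence from an integrated firefly luciferase in P. falciparum. Red cells, 2% hematocrit and 0.05% parasitemia final, were cultured with compound through two parasite generations (96 hours) at 37 C, 5% CO2.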
On the % scale 0 is the no-effect control and ±100 the full control effect; potency means the concentration at half of the fitted maximal effect.

Row | SMILES | Potency | activity change, negative = inhibition
1 | CN1CCCC1CCNS(=O)(=O)c1ccc(Br)cc1 (centres undefined) | inconclusive: 6.57 µM [inhibitor, partial curve] | 
2 | O=c1[nH]c(=S)[nH]c(O)c1N=Nc1ccc(-c2ccccc2)cc1[N+](=O)[O-] | inactive | 
3 | CCN(CC(=O)Nc1ccccc1OC)C(=O)c1cccc(-n2cccc2)c1 | inconclusive: 18.5 µM [inhibitor, single point] | 
4 | O=C(N1CCCCCC1)N1CCN(S(=O)(=O)N2CCCCC2)CC1 | inconclusive: 9.28 µM [inhibitor, single point] | 
5 | COc1cc(OC)cc(C(=O)N[C@H](C(=O)Nc2cc(C)cc(C)c2)C(C)C)c1 | inconclusive: 10.4 µM [inhibitor, single point] | 
6 | COc1cccc(C2NC(=S)NC3=C2CCc2ccccc23)c1 (centres undefined) | inconclusive: 18.5 µM [inhibitor, single point] | 
7 | CCOC(=O)N1CCN(C(=O)CSc2nc(-c3cccc(C)c3)ns2)CC1 | inconclusive: 18.5 µM [inhibitor, single point] | 
8 | COc1ccc(-n2c(SCC(=O)Nc3ccccc3OC)nc(O)cc2=O)cc1 | inconclusive: 18.5 µM [inhibitor, single point] | 
9 | CC1CCc2c(sc3ncnc(SCC(=O)N4CCN(C(=O)c5ccco5)CC4)c23)C1 (centres undefined) | inconclusive: 18.5 µM [inhibitor, single point] | 
10 | O=C(CS(=O)(=O)c1c[nH]c2ccccc12)N1CCCCC1 | inconclusive: 0.0828 µM [inhibitor, full curve, poor fit] | 
11 | CCCNc1nc2ccccc2n2c(C)nnc12 | active: 9.28 µM | 
12 | CCOC(=O)c1ccc(NC(=O)c2ccc(NC(=O)c3ccccc3)cc2)cc1 | inactive | 
13 | Cc1cc(C)nc(NC(=O)c2cc3ccccc3o2)n1 | inactive | 
14 | Cc1cccc(-n2c(CCc3ccccc3)nnc2SCC(=O)c2ccccc2)c1 | inconclusive: 8.28 µM [inhibitor, single point] | 
15 | CCc1ccc(CNC(=O)C2CCCN(c3nn4c(=O)cc(C)nc4s3)C2)cc1 (centres undefined) | inconclusive: 0.147 µM [inhibitor, partial curve, poor fit] | 
16 | CSc1ncccc1C(=O)NCCc1ccccc1F | inactive | 
17 | Cc1cccc(N2CCN(C(=O)CN3CCOc4ccccc43)CC2C)c1 (centres undefined) | inconclusive: 18.5 µM [inhibitor, single point] | 
18 | Cc1ccc(C(=O)NC(=S)NCc2ccco2)cc1 | inconclusive: 10.4 µM [inhibitor, single point] | 
19 | COc1cc(C(=O)Nc2ccc3c(c2)CCCN3C(=O)c2ccco2)c([N+](=O)[O-])cc1OC | inconclusive: 11.7 µM [inhibitor, partial curve, poor fit] | 
20 | CC(=O)Nc1sc2c(c1C(c1ccccc1Cl)N1CCN(CCO)CC1)CCCC2 (centres undefined) | inconclusive: 18.5 µM [inhibitor, single point] | 
21 | Oc1cc(NCCN2CCOCC2)cc2cccnc12 | inconclusive: 5.22 µM [inhibitor, partial curve, poor fit] | 
22 | Cc1ccc(S(=O)(=O)/N=C2\CN(C)C(=O)N2C)cc1 | active: 4.65 µM | 
23 | CCn1nc(C)cc1-c1nnc(SCC(=O)Nc2ccccc2)n1CCCOC | inactive | 

Row | SMILES | Potency | activity change, negative = inhibition
24 | O=C(Cc1ccc(S(=O)(=O)N2CCOCC2)s1)NCCOc1ccccc1 | inactive | 
25 | CCCc1cc(=O)oc2cc(C)cc(O)c12 | inconclusive: 4.65 µM [inhibitor, partial curve, poor fit] | 
26 | CCCn1c(N2CCN(C(=O)NCc3ccccc3)CC2)nc2ccccc21 | inconclusive: 18.5 µM [inhibitor, single point] | 
27 | O=C(NCc1ccc2c(c1)OCO2)NC1CCCCC1 | inactive | 
28 | CCOc1ccccc1-c1noc(CCC(=O)NC2CCCCC2)n1 | inconclusive: 11.7 µM [inhibitor, single point] | 
29 | Cc1cccc(NC(=O)CN(CC2CCCO2)C(=O)c2cc3ccccc3o2)c1C (centres undefined) | inconclusive: 18.5 µM [inhibitor, partial curve, poor fit] | 
30 | CSc1ccccc1C(=O)NC1CCCC1 | inconclusive: 9.28 µM [inhibitor, partial curve, poor fit] | 
31 | O=c1[nH]c(CN2CCN(c3ccc(O)cc3)CC2)nc2scc(-c3ccc(Cl)cc3)c12 | inconclusive: 1.17 µM [inhibitor, full curve, poor fit] | 
32 | C=CCn1c(CC(=O)OC)csc1=Nc1ccc(C(C)=O)cc1 | inconclusive: 18.5 µM [inhibitor, single point] | 
33 | Cc1c(NC(=O)N(C)c2ccccc2)c(=O)n(-c2ccccc2)n1C | inconclusive: 13.1 µM [inhibitor, partial curve, poor fit] | 
34 | COc1ccc(CNC(=O)C2CCC(=O)N(CC3CCCCC3)C2)cc1 (centres undefined) | active: 2.33 µM | 
35 | Cc1ccc(F)cc1NC(=O)N1c2ccccc2NC(=O)CC1C (centres undefined) | inactive | 
36 | O=C(Cc1cccs1)N1CCC(c2nc3c(nnn3Cc3ccc(F)cc3)c(=O)[nH]2)CC1 |  | inactive: 0.833% [at 5.75 µM]
37 | CC1CCCCC1NC(=O)/C(C#N)=C/C=C/c1ccccc1[N+](=O)[O-] (centres undefined) | active: 11.7 µM | 
38 | CCCCNS(=O)(=O)c1ccc2nc(-c3cccnc3)cc(C(=O)NCCCOC)c2c1 | inconclusive: 0.329 µM [inhibitor, full curve, poor fit] | 
39 | S=C(Nc1ccccc1)N1CCC(C2CCN(C(=S)Nc3ccccc3)CC2)CC1 | inconclusive: 0.0657 µM [inhibitor, full curve] | 
40 | CC(C)(C)NC(=O)CSc1nnc(NC(=O)c2ccccc2Cl)s1 | inactive | 
41 | CCn1c(=O)c2sccc2n2c(CCCC(=O)N3CCN(c4ccccn4)CC3)nnc12 | inconclusive: 10.4 µM [inhibitor, single point] | 
42 | CC1(C)OC(C)(C)/C(=C\c2ccc(OCC(N)=O)cc2)C1=O | inactive | 
43 | COc1ccccc1CNC(=O)CN(c1ccc(C)cc1)S(=O)(=O)c1c(C)nn(C)c1C | active: 4.15 µM | 
44 | O=C1N=C(N2CCOCC2)S/C1=C/c1ccc(-c2ccc(F)cc2)o1 | inconclusive: 9.28 µM [inhibitor, partial curve] | 
45 | CC(NS(=O)(=O)c1ccc2c(c1)c(=O)n(C)c(=O)n2C)C(=O)NC1CCCCC1 (centres undefined) | inconclusive: 0.465 µM [inhibitor, full curve, poor fit] | 
46 | Cc1ccc2[nH]c(=O)c(CC=C(Cl)Cl)c(C)c2c1 | inconclusive: 20.8 µM [inhibitor, single point] | 

Some of the entries so far, comma-delimited:
Row,SMILES,Potency,"activity change, negative = inhibition"
34,COc1ccc(CNC(=O)C2CCC(=O)N(CC3CCCCC3)C2)cc1 (centres undefined),active: 2.33 µM,
35,Cc1ccc(F)cc1NC(=O)N1c2ccccc2NC(=O)CC1C (centres undefined),inactive,
38,CCCCNS(=O)(=O)c1ccc2nc(-c3cccnc3)cc(C(=O)NCCCOC)c2c1,"inconclusive: 0.329 µM [inhibitor, full curve, poor fit]",
41,CCn1c(=O)c2sccc2n2c(CCCC(=O)N3CCN(c4ccccn4)CC3)nnc12,"inconclusive: 10.4 µM [inhibitor, single point]",
45,CC(NS(=O)(=O)c1ccc2c(c1)c(=O)n(C)c(=O)n2C)C(=O)NC1CCCCC1 (centres undefined),"inconclusive: 0.465 µM [inhibitor, full curve, poor fit]",

(more compounds)

Row | SMILES | Potency | activity change, negative = inhibition
47 | C=CC[N+]1(CC=C)CCOCC1 | inactive | 
48 | CC(C)Cn1c(-c2ccc(Cl)cc2)cnc1SCC(=O)N1CCOCC1 | inconclusive: 11.7 µM [inhibitor, partial curve] | 
49 | Cc1ccnc(NC(=S)NC(=O)/C=C/c2ccc(Cl)cc2)c1 | active: 4.15 µM | 
50 | Cc1ccc(C(=O)Nc2nc(=O)n(C(=O)c3ccccc3C)s2)cc1 | inactive | 
51 | Cc1ccc(C)c(NC(=S)NC2CC3CCC(C2)N3Cc2ccco2)c1 (centres undefined) | active: 11.7 µM | 
52 | O=C(/C=C/c1ccc([N+](=O)[O-])cc1)NCc1cccnc1 | inactive | 
53 | CC(C)(C)c1ccc(S(=O)(=O)N2CCN(CC(O)COCC3CCCO3)CC2)cc1 (centres undefined) | inconclusive: 13.1 µM [inhibitor, partial curve] | 
54 | O=c1c(-c2ccc(Br)cc2)coc2c(CN3CCOCC3)c(O)ccc12 | inconclusive: 3.7 µM [inhibitor, single point] | 
55 | CC(C)c1ccc(NC(=O)C2C3C=CC4(CN(Cc5cccnc5)C(=O)C24)O3)cc1 (centres undefined) | inconclusive: 0.928 µM [inhibitor, partial curve, poor fit] | 
56 | CCOc1ccc(C(C)NC(=S)NC2CCCCC2)cc1 (centres undefined) | inconclusive: 9.28 µM [inhibitor, partial curve, poor fit] | 
57 | COc1cc(C(=O)NCC(c2ccc(F)cc2)N2CCOCC2)ccc1OCc1ccccc1Cl (centres undefined) | active: 9.28 µM | 
58 | COc1ccc(C2c3ccc(O)cc3Oc3ncn4nc(-c5ccccn5)nc4c32)cc1 (centres undefined) | inconclusive: 0.0657 µM [inhibitor, full curve, poor fit] | 
59 | Cc1ccc(S(=O)(=O)Nc2ccccc2CNc2cccc(C)n2)cc1 | inconclusive: 11.7 µM [inhibitor, partial curve, poor fit] | 
60 | Cc1cc([N+](=O)[O-])ccc1-c1ccc(/C=N/NC(=O)c2ccc(Br)o2)o1 | inconclusive: 10.4 µM [inhibitor, partial curve, poor fit] | 
61 | COc1ccccc1CCC(=O)N(CCC1=CCCCC1)c1c(N)n(Cc2ccccc2)c(=O)[nH]c1=O | inconclusive: 1.04 µM [inhibitor, partial curve, poor fit] | 
62 | COC(=O)c1sc(NC(=O)CSc2nnnn2C)nc1C | inconclusive: 11.7 µM [inhibitor, single point] | 
63 | CC1=C(O)C(=O)OC1c1c(Cl)cccc1Cl (centres undefined) | inactive | 
64 | CCOC(=O)COc1ccc(C(=O)CC)cc1OC | inactive | 
65 | c1ccc2c(c1)Cn1nnnc1-2 | active: 4.15 µM | 
66 | COc1ccc([C@@H]2C[C@H](c3ccccc3)Oc3cc(OC)c(OC)c(OC)c32)cc1 | inconclusive: 10.4 µM [inhibitor, single point] | 
67 | CNC(=O)C1=C(C)n2c(nc3ccccc32)NC1c1ccc(OC)cc1 (centres undefined) | inconclusive: 16.5 µM [inhibitor, single point] | 
68 | CC(C(=O)c1c[nH]c2ccccc12)N1CCSCC1 (centres undefined) | inactive | 
69 | COc1cccc(NC(=O)CN(C)C(=O)c2cccc(S(=O)(=O)N3CCN(c4ccc(F)cc4)CC3)c2)c1 | inconclusive: 10.4 µM [inhibitor, single point] | 
